Results taken from PubChem BioAssay AID1117319 (Southern Research Institute, 2015).
In all, about 260,000 compounds went through this assay and about 1,500 (0.58%) were called active. Inconclusive results, whose numbers are uncertain, are shown with a selection of clear calls.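 How the source made its calls: active means inhibition above a set limit at one or more doses, reproduced on every date tested; inconclusive means results disagree between test dates, or hit never tested in dose response; inactive means the rest.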

Sequences of proteins named here, by UniProt entry; tags and fusion partners are left off. A change or cut given only in a name is not applied to a line headed by its entry.
UniProt P69720: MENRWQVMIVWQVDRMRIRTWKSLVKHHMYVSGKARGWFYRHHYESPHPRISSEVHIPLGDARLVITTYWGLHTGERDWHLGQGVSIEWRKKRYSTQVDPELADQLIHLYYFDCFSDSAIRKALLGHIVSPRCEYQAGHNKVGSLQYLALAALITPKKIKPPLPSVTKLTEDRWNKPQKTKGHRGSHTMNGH
UniProt P69721: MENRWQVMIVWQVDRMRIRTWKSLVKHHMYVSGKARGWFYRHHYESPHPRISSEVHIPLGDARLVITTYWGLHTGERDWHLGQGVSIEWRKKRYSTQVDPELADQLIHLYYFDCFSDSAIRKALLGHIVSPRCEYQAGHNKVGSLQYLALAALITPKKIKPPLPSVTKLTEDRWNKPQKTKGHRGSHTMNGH
UniProt P69722: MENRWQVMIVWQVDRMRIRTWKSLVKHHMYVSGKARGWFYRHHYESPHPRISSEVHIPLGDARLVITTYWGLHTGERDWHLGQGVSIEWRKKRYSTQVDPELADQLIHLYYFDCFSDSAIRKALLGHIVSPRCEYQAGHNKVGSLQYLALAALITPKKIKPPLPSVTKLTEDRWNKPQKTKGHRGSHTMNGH
UniProt P69723: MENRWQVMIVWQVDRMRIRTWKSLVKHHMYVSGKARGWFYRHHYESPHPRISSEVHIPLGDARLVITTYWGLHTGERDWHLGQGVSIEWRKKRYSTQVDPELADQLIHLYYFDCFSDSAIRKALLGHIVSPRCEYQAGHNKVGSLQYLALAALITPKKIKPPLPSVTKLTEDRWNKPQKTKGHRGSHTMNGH
UniProt Q9HC16: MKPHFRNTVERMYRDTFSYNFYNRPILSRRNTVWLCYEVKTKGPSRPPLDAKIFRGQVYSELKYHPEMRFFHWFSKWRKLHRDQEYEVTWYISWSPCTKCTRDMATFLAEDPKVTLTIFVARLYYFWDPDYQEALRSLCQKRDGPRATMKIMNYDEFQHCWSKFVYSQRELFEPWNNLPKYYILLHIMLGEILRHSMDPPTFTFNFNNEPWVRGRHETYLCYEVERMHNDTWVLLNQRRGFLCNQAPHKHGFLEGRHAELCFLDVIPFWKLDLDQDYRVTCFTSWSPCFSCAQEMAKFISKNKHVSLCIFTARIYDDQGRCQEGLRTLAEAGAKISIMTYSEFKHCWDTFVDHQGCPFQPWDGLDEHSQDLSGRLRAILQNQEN

Molecular target: Virion infectivity factor (Human immunodeficiency virus type 1 group M subtype B (isolate BH10)) + Virion infectivity factor (Human immunodeficiency virus type 1 group M subtype B (isolate BRU/LAI)) + Virion infectivity factor (Human immunodeficiency virus type 1 group M subtype B (isolate PCV12)) + Virion infectivity factor (Human immunodeficiency virus type 1 group M subtype B (isolate HXB2)) + DNA dC->dU-editing enzyme APOBEC-3G (Homo sapiens) (UniProt P69720+P69721+P69722+P69723+Q9HC16)
Assay: inhibitors of Vif binding to APOBEC3G peptide, primary screen, biochemical, TR-FRET, GST-Vif 1-94, biotin-A3G peptide, dose response retest (AID 1117319);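 further: Vif residues 1-94 fused to GST binding biotinylated APOBEC3G peptide 110-148; 0% = full assay without inhibitor and 100% = GST in place of GST-Vif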
Details: stronger effect = higher value

Compound	inhibition
O=c1[nH][nH]c(C(F)(F)F)c1C=Nc1ccccc1	inconclusive: 42.5%
CCOC(=O)NC1(Nc2cccc(Cl)c2)Oc2ccccc2O1	inconclusive: 57.2%
Cc1c(/C=N/NC(=O)c2cc(=O)[nH]c(=O)[nH]2)c2ccccn2c1C(=O)c1ccccc1	inconclusive: 23.5%
Cc1cc(C(=O)COC(=O)CNC(=O)c2ccccc2)c(C)n1CC1CCCO1 (stereo not drawn)	inconclusive: 39.8%
Cc1ccc(S(=O)(=O)Cc2ccc(C(=O)NCc3cccs3)o2)cc1	inactive: 2.29%
Cc1cccc(-n2c(SCc3ccc([N+](=O)[O-])cc3)nnc2-c2c[nH]c3ccccc23)c1	inconclusive: 34.4%
COc1ccc(C2=NN(c3nc(-c4ccccc4)c(CC(=O)O)s3)C(c3ccco3)C2)cc1 (stereo not drawn)	inconclusive: 63%
Cc1cc(S(=O)(=O)Nc2ncnc3sccc23)ccc1F	inactive: 1.05%
COc1cccc2c(=O)cn[nH]c12	inconclusive: 45.5%
COc1ccc(C)c2sc(N(CCCN(C)C)C(=O)c3ccc(S(=O)(=O)N(C)C)cc3)nc12	inactive: -2.34%
CS(=O)(=O)N(CC(=O)N1CCN(c2ccc(F)cc2)CC1)c1cccc(Cl)c1	inconclusive: 41.7%
Cc1ccccc1C(=O)c1cccn1CC(=O)N1CCCCCC1	inconclusive: 38%
Cc1ccnc(NS(=O)(=O)c2ccc(NC(=O)c3ccc4c(c3)OCCO4)cc2)n1	inconclusive: 48.5%
CSc1nnnn1CCn1nnnc1SC	inconclusive: 22.9%
Clc1ccc(-c2nnc(-c3cccc4ccccc34)o2)cc1Cl	inconclusive: 36.7%
c1ccc2nc3c(nc2c1)CCc1nonc1-3	inconclusive: 35.8%
Cc1nc2ccc(NC(=O)c3ccc(Cl)c(S(=O)(=O)N(C)c4ccccc4)c3)cc2s1	inconclusive: 47.7%
Cc1cc(=O)[nH]c(SCc2nc3ccccc3s2)n1	inconclusive: 37%
FC(F)(F)c1cc(-c2ccco2)nc(NCc2ccccc2)n1	inactive: 15.6%
CCOC(=O)C1CCCN(C(=O)c2ccc(OCC)cc2)C1 (stereo not drawn)	inconclusive: 34.6%
O=C(CCSc1nnc(-c2ccncc2)o1)Nc1ccccc1Cl	inconclusive: 35.5%
CCOC(=O)c1c(NC(=O)CN2CCN(c3ccc(Cl)cc3)CC2)sc(C)c1C	inconclusive: 38%
COC(=O)CCC(=O)OC1(C)C(=O)C=C2C=C(C3CC3)N(CCc3ccccn3)C=C2C1=O (stereo not drawn)	inactive: -2.65%
COc1ccc(NS(=O)(=O)c2cc(NC(=O)/C=C/c3ccccc3OC)ccc2N2CCCCC2)cc1	inconclusive: 41.6%
O=C(NCc1ccc2c(c1)OCO2)c1ccccc1	inconclusive: 61%
Cc1c(Cl)cccc1NC(=S)N/N=C/c1ccccc1Cl	inconclusive: 61.5%
COC(=O)C1=C(C)NC(=S)NC1c1sccc1C (stereo not drawn)	inconclusive: 49.8%

For convenience, part of the list above:
Compound	inhibition
CCOC(=O)c1c(NC(=O)CN2CCN(c3ccc(Cl)cc3)CC2)sc(C)c1C	inconclusive: 38%
COC(=O)CCC(=O)OC1(C)C(=O)C=C2C=C(C3CC3)N(CCc3ccccn3)C=C2C1=O (stereo not drawn)	inactive: -2.65%
COc1ccc(NS(=O)(=O)c2cc(NC(=O)/C=C/c3ccccc3OC)ccc2N2CCCCC2)cc1	inconclusive: 41.6%
O=C(NCc1ccc2c(c1)OCO2)c1ccccc1	inconclusive: 61%
Cc1c(Cl)cccc1NC(=S)N/N=C/c1ccccc1Cl	inconclusive: 61.5%
COC(=O)C1=C(C)NC(=S)NC1c1sccc1C (stereo not drawn)	inconclusive: 49.8%
